From PubChem BioAssay AID624246 (National Center for Advancing Translational Sciences (NCATS), 2012)
Out of some 370,000 compounds screened, about 100 (0.027%) were called active. This list was built around the results that the source calls inconclusive (neither active nor inactive); the mix of calls is not that of the screen. Calls follow the shape of the dose curve; as a rule, active = well fitted inhibition curve with a large enough effect in the polarisation, with a control signal flat; inconclusive = small, poorly fitted or top-dose-only effect, or effect the other way, or a change in a side signal; inactive = no such curve, though single readings can be large or run the other way; the % refers to the polarisation. Potencies of inconclusive entries are doubtful fits and often do not repeat. “Side channel” marks fits to a control or component signal instead of the main read-out.

Chains of the proteins cited; added tags and fusions are not shown. Lines headed by an entry give the natural chain unless they say otherwise; changes in a name come on top.
UniProt P11308: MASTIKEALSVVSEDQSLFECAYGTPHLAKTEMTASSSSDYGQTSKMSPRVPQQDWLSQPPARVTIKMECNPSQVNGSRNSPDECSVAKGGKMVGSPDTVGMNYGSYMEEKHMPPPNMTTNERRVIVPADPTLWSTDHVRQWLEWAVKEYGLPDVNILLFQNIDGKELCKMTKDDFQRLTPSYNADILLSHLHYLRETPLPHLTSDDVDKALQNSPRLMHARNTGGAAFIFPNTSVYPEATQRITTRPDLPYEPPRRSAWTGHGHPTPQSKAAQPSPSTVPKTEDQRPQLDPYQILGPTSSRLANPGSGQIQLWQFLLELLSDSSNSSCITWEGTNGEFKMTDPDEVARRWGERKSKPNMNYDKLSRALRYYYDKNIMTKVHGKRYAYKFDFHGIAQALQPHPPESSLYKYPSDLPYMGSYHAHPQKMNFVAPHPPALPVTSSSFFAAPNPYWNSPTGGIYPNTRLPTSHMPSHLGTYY

biological target: Transcriptional regulator ERG (Homo sapiens) (UniProt P11308); assay: qHTS for Small Molecule Inhibitors of the ERG Ets/DNA interaction; conditions: fluorescence polarization, His-ERG Ets domain / labelled DNA; FP activity, negative = inhibition: at 76.9 µM (top of the series); as to FP activity, negative = inhibition: % of control where 0% means no effect
Excerpt: The Ets family of proteins is a family of ~30 conserved transcription factors defined by the presence of an ~85 amino acid domain referred to as the Ets domain, which mediates sequence-specific DNA binding to a core DNA element GGAA/T.The Ets family member ERG has been linked to several neoplasms. […] More extensive studies of the effects of over-expression of ERG in prostate cells have recently been carried out and have shown that over-expression of ERG results in increased invasion. […] We will carry out a high throughout screen to identify inhibitors of the interaction between ERG and DNA using a fluorescence polarization (FP) assay with a His-tagged ERG Ets domain and fluorescently-labeled DNA probes to develop small molecule inhibitors of this interaction as probes to test this hypothesis and lay the groundwork for the development of targeted therapies against ERG. NIH Molecular Libraries Probe Production Network [MLPCN] NIH Chemical Genomics Center [NCGC] Grant: NS066464 PI Name: John Bushweller, University of Virgina
1.5 ul of protein solution (1 uM ERG domain in 300mM KCl, 50mM Tris-HCl, 1mM EDTA, 1mM DTT, pH 7.5); 20 nl Control plate and compound library plate; 1.5 ul mixture of 5 nM Fluorescein-DNA and 100nM Texas-615-DNA solution in same buffer as above solution; measure fluorescence polarization sequentially for fluorescein (Excitation = 480 nm, Emission = 535s, 535p nm) and Texas red (Excitation = 555 nm, Emission = 632s, 632p nm).
Potency is read from the fitted curve at half-maximal effect.

Compound	Potency	FP activity, negative = inhibition
COc1ccc(CCNC(=O)CCc2ccccc2)cc1OC	inconclusive: 31.6 µM [quencher, side channel, single point]	
Cc1ccc(CC(=O)Nc2ccc([N+](=O)[O-])cc2C)cc1		inactive: 1.7%
CCc1ccc(CN2CCCC(C(=O)Nc3ccccc3-c3ccc(OC)cc3)C2)o1 (stereo unspecified)	active: 31.6 µM	
Cc1c(/C=N\NC(=O)C2COc3ccccc3O2)c2ccccc2n1C (stereo unspecified)		inactive: 5.35%
CC(C)C(=O)N(Nc1nc2ccccc2s1)C(=O)C(C)C		inactive: -7.29%
O=C(CSc1nc2ncccc2[nH]1)NCCc1ccccc1		inactive: -11.8%
C=C(C(=O)c1ccccc1)C(c1ccccc1)C(C)C(=O)c1ccccc1 (stereo unspecified)		inactive: 1.8%
CCC(C)NCCOc1ccc(C)cc1[N+](=O)[O-] (stereo unspecified)	inconclusive: 44.7 µM [inhibitor, partial curve, poor fit]	
O=C(NC[C@@H]1CCCO1)c1cccc2c1C(=O)c1ccc(N3CCOCC3)cc1S2(=O)=O		inactive: 6.82%
Cc1cccc(-c2cnn(-c3cccc([N+](=O)[O-])c3)c2N)c1	inconclusive: 31.6 µM [inhibitor, partial curve, poor fit]	
CNC(=S)NNc1nncc2ccccc12	inconclusive: 7.94 µM [inhibitor, single point]	
COc1ccc(CC(=O)Nc2ccc(-c3nnc(-c4ccccc4)o3)cc2)cc1	inconclusive: 63.1 µM [inhibitor, single point]	
CCC(OC(=O)CN1C(=O)C(=O)c2ccccc21)C(=O)Nc1ccc(S(N)(=O)=O)cc1 (stereo unspecified)	inconclusive: 7.94 µM [inhibitor, single point]	
Cc1ccc(NC(=O)Cn2cc(C(=O)C3CC3)c3ccccc32)c(C)c1	inconclusive: 7.08 µM [inhibitor, single point]	
Cc1nn2c(-c3ccco3)nnc2c2ccccc12	inconclusive: 25.1 µM [inhibitor, single point]	
O=C1C(SCCO)=C(SCCO)C(=O)c2ccccc21	active: 12.6 µM	
Cc1cc(C(F)(F)F)c(C#N)c(N2CCOCC2)n1		inactive: 0.491%
Oc1ccc(-c2cc(-c3ccc(O)cc3)nc(-c3ccccc3)n2)cc1		inactive: 6.36%
CC1CCCC(NC(=O)COC(=O)/C=C/c2ccco2)C1C (stereo unspecified)	inconclusive: 3.55 µM [inhibitor, partial curve, poor fit]	
CCOc1ccc(/C=C/c2nc3ccccc3n2S(=O)(=O)c2ccc(Br)cc2)cc1	inconclusive: 28.2 µM [quencher, side channel, partial curve]	
CC(C)(C)c1nnc(NC(=O)CS(=O)(=O)Cc2ccccc2)s1		inactive: 0.981%
CC1CN(C(=O)c2cc3cc([N+](=O)[O-])ccc3s2)CC(C)O1 (stereo unspecified)	inconclusive: 1.12 µM [inhibitor, full curve, poor fit]	
COc1ccc(NC(=O)C2C3CCC(O3)C2C(=O)O)c(C)c1 (stereo unspecified)	inconclusive: 28.2 µM [inhibitor, single point]	

Compound	Potency	FP activity, negative = inhibition
C=CCn1c(=O)c2ccccc2n2c(SCc3nc(N)nc(Nc4ccccc4C)n3)nnc12	inconclusive: 35.5 µM [inhibitor, partial curve, poor fit]	
CCSc1nc2c(c(=O)[nH]c(=O)n2C)n1CC(O)COc1ccccc1 (stereo unspecified)	inconclusive: 3.55 µM [inhibitor, partial curve, poor fit]	
CC(=O)Nc1ccc(SCC(=O)N(C)C2CCS(=O)(=O)C2)cc1 (stereo unspecified)	inconclusive: 20 µM [inhibitor, partial curve, poor fit]	
Cc1onc(-c2c(F)cccc2Cl)c1C(=O)Nc1nnc(-c2ccccc2)s1		inactive: 2.41%
N#Cc1c(NC(=O)CCCN2C(=O)c3ccccc3C2=O)oc(-c2ccccc2)c1-c1ccccc1	inconclusive: 50.1 µM [inhibitor, partial curve, poor fit]	
O=C(CSCc1ccccc1Cl)N1CCN(c2ccc(Cl)cc2)CC1		inactive: 3.41%
NCc1ccccc1COc1ccccc1		inactive: -13.3%
CCCCN(C)C(=O)CS(=O)(=O)Cc1nc(-c2cccc(OC)c2)oc1C	active: 20 µM	
Cc1ccccc1C1CC(=O)Nc2ccc3ccccc3c21 (stereo unspecified)		inactive: -1.43%
COc1cc(/C=C(\C#N)c2nc3ccccc3[nH]2)cc(OC)c1O		inactive: 135%
Cc1ccc(-c2[nH]c(-c3ccc(C(=O)O)cc3)nc2-c2ccccc2)cc1	inconclusive: 22.4 µM [inhibitor, partial curve, poor fit]	
Cn1nnnc1SCC(=O)N1CCCCC1		inactive: 15%
O=C(CNCc1ccc(F)cc1)Nc1ccccc1[N+](=O)[O-]	inconclusive: 31.6 µM [inhibitor, single point]	
CCc1cccc(C)c1NC(=S)NCc1ccc2c(c1)cc(C)n2C	inconclusive: 35.5 µM [inhibitor, partial curve, poor fit]	
O=C(C1CCN(S(=O)(=O)c2cccnc2)CC1)N1CCN(c2cccc(Cl)c2)CC1		inactive: -2.92%
CC[n+]1c(/C=C/c2ccc(N(C)C)cc2)ccc2ccccc21	inconclusive: 35.5 µM [fluorescent, side channel, partial curve, poor fit]	
CCOC(=O)c1cccc(NC(=O)[C@@H](c2ccccc2)N2Cc3ccccc3C2=O)c1	inconclusive: 5.62 µM [quencher, side channel, partial curve, poor fit]	
Cc1ccc(C(=O)Nc2ccc(-c3cn4cccnc4n3)cc2)cc1C		inactive: -2.89%
Cc1ccc([N+](=O)[O-])c2c1C(N1CC(C)OC(C)C1)C(C)(C)O2 (stereo unspecified)	inconclusive: 3.55 µM [inhibitor, partial curve, poor fit]	
C=CCOc1ccc(/C=N/NC(=O)C2CCCC2)cc1OCC	inconclusive: 3.55 µM [inhibitor, partial curve, poor fit]	
COC(=O)C1=C(Cn2cnc3ccccc32)NC(=O)NC1c1cc(C)ccc1C (stereo unspecified)	inconclusive: 31.6 µM [quencher, side channel, partial curve, poor fit]	
N#Cc1cc2c(=O)n3ccccc3nc2n(-c2nnc(SCc3ccccc3Cl)s2)c1=O		inactive: -4.1%
CCSC(=O)NC1CCCCC1	inconclusive: 50.1 µM [quencher, side channel, single point]	

Entries above that contain an aryl thioether with sulfur outside any ring, in the order listed:
Compound	Potency	FP activity, negative = inhibition
O=C(CSc1nc2ncccc2[nH]1)NCCc1ccccc1		inactive: -11.8%
C=CCn1c(=O)c2ccccc2n2c(SCc3nc(N)nc(Nc4ccccc4C)n3)nnc12	inconclusive: 35.5 µM [inhibitor, partial curve, poor fit]	
CCSc1nc2c(c(=O)[nH]c(=O)n2C)n1CC(O)COc1ccccc1 (stereo unspecified)	inconclusive: 3.55 µM [inhibitor, partial curve, poor fit]	
CC(=O)Nc1ccc(SCC(=O)N(C)C2CCS(=O)(=O)C2)cc1 (stereo unspecified)	inconclusive: 20 µM [inhibitor, partial curve, poor fit]	
Cn1nnnc1SCC(=O)N1CCCCC1		inactive: 15%
N#Cc1cc2c(=O)n3ccccc3nc2n(-c2nnc(SCc3ccccc3Cl)s2)c1=O		inactive: -4.1%
